In publication PMC5410337, “Anti-cancer effect of novel PAK1 inhibitor via induction of PUMA-mediated cell death and p21-mediated cell cycle arrest” (Oncotarget, 2017):
Read-outs that look alike come from different tables or passages of the source. Results are given in words; binding and its absence hold for the method and conditions named. In cells and extracts the contact can be indirect. Some binding calls cover weakened binding; strength is not graded here. For some of these results: Sequences can lack the tags named with a protein. One block for each molecule: values may come before it.

Sequences of proteins named here, by UniProt entry; tags and fusion partners are left off. A change or cut given only in a name is not applied to a line headed by its entry. Residues count along the entry.
UniProt Q13153: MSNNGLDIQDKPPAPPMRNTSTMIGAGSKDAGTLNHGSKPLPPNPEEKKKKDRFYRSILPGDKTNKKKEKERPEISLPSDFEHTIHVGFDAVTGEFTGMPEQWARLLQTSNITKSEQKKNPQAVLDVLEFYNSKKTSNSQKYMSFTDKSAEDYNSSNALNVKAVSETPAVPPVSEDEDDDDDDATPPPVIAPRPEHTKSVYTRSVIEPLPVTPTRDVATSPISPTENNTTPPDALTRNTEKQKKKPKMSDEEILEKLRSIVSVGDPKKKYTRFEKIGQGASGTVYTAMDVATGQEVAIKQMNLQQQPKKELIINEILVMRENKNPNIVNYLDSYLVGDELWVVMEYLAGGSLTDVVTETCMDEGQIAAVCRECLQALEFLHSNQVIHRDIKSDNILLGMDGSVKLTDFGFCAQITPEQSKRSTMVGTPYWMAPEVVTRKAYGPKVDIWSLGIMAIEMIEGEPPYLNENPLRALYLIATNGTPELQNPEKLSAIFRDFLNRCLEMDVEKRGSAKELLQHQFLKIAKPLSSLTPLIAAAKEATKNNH
GST-PAK1 N-terminal domain (residues 70-149): residues 70-149 of Q13153
UniProt P10415: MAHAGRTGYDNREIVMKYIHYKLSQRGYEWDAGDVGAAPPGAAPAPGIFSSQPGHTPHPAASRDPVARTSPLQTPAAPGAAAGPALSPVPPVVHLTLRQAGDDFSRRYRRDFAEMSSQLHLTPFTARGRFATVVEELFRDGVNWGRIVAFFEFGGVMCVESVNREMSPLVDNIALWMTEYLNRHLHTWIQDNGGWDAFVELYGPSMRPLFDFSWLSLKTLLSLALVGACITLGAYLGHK
UniProt P31749: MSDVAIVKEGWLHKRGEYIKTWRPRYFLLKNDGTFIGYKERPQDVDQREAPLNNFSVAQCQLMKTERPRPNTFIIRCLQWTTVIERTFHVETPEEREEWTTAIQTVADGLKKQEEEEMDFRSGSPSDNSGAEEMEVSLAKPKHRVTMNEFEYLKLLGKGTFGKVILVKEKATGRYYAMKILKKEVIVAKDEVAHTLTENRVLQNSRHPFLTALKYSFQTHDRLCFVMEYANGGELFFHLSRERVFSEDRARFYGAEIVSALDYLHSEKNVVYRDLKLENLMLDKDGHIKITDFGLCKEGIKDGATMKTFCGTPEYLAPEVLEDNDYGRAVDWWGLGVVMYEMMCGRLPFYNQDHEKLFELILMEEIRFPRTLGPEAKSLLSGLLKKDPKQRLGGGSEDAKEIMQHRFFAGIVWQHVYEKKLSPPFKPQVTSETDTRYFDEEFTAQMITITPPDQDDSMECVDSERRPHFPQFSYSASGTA
UniProt P38936: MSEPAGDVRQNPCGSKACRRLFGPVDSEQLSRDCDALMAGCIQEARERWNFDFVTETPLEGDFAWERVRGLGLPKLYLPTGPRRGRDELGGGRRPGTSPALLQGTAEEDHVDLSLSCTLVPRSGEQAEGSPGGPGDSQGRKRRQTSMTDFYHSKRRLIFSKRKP

How the values were obtained:
[1] = target: GST-PAK1 N-terminal domain (residues 70-149) (human) (UniProt Q13153); experiment: pull-down; agarose bead-conjugated GST-PAK1 N-terminal domain (70-149) incubated with transfected cell lysates (PUMA-FLAG in HEK293, or AKT) for 1 hr at 4°C, with DMSO, IPP-14, IPP-23 (5 uM) or AG879 (0.1 mM); western blot; only the target purified
Bcl-2-HA = Bcl-2-HA (UniProt P10415); experiment: co-IP; whole cell lysates (RIPA buffer) of HEK293, HCT116 or HCT116 PUMA-deficient cells co-transfected with p21-FLAG and Bcl-2-HA for 24 hr, with or without IPP-14 (1 uM); anti-HA antibody 2 hr at 4°C, protein A/G agarose; blot with anti-FLAG, Actin and HA
[2] = target: GST-PAK1 N-terminal domain (residues 70-149) (human) (UniProt Q13153); experiment: pull-down; agarose bead-conjugated GST-PAK1 N-terminal domain (70-149) incubated with transfected cell lysates (PUMA-FLAG in HEK293, or AKT) for 1 hr at 4°C, with DMSO, IPP-14, IPP-23 (5 uM) or AG879 (0.1 mM); western blot; only the target purified; remark: listed apart in the source
[3] = target: PAK1 (immunoprecipitation assay) (UniProt Q13153); experiment: co-IP; IP assay of PAK1 and PUMA with a proper antibody and transfected lysates, with or without chemical; bait and constructs not told

binding [1]: binds
Molecule: AKT1 (from UniProt P31749 1-480)

binding (Bcl-2-HA): binds
Molecule: p21-FLAG (from UniProt P38936 1-164)

binding [2]: binds
B1: PUMA-FLAG (protein, UniProt Q9BXH1 1-193)
chain: MARARQEGSSPEPVEGLARDGPRPFPLGRLVPSAVSCGLCEPGLAAAPAAPTLLPAAYLCAPTAPPAVTAALGGSRWPGGPRSRPRGPRPDGPQPSLSLAEQHLESPVPSAPGALAGGPTQAAPGVRGEEEQWAREIGAQLRRMADDLNAQYERRRQEEQQRHRPSPWRVLYNLIMGLLPLPRGHRAPEMEPN

binding [3]: binds
B2: PUMA (immunoprecipitation assay) (protein, UniProt Q9BXH1 1-193)
chain: B1 chain
